According to publication PMC9642905:
These are yes or no findings as the source states them, for the method shown. Some binding calls cover weakened binding; strength is not graded here.

Molecular target: T1, RME-8 aa1322-1388 (DNAJ) fragment, wild-type, two-hybrid bait (Fig 4F) (C. elegans) (UniProt G5ED36)
T1 sequence: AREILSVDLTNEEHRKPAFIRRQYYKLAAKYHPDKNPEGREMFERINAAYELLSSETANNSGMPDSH
Assay: two-hybrid; wild-type or mutant DNAJ domain (1322-1388) as bait, RME-8(1388-2279) as prey; spotted on SC-LEU-TRP growth or SC-LEU-TRP-URA assay media

B1: RME-8(1388-2279), two-hybrid prey (Fig 4F) (domain or fragment, UniProt G5ED36 1388-2279)
chain: HRIVLCLQAQSIIYSRYSQELSEYKYAGYSQLIKTIDLEAKDEALFIKGGGDLLSAAIELANYTLISSALNAEQLRRDNGLEALVTAFDRCVPMVTMSSLPDDMAVRVCIHVCDCFATAATFEACRQRLMEMPSIFGALTRLLQFSNLPRLSTAAAQCIRAMAVDTLLQFQLFQTGVLWQLVPHLFHFDYTLDEGGVQHSEDSNKQSLANSLARSSCEALAALAGFRENTPDNDGVQASLRALLTPYICRCMKLETNDMVLKTLNSNMENPYMIWDNGTRAEVLEFVERHRTSNEPTSELYGAEFELSVHKNELIVGDIFIRIYNEQPTFALHEPKKVAIDLLDYIKKHSAELTGAPKPKAISDDLIEIDWGNGSQANGNSLDTETKVLMTMTALANLVSANPGALFANKKGVEILLIGNFPLLITYLRCRKHPKLQIAALQVILLAAANKECVTDLATCNVTTTLFTLLRDQPKMIARVLDVLIALSSNGQIGKEMLEHGGLMYILSILCLTNSDQGQRLQAAELLAKLQADKLTGPRWTRFIIKFLPEIFADSLRDSPNTALQMFDSSSENPELIWNEVTRQKVKGIIDTEVGKLYEQHIKDPTVKWNTTSLADKSCAYGDSINGELVVGGVFVRLYVENPGFNVRHPKLFSTELIEKVLELMSRPTPELDLVTKAFVELVRHHPNTADQLPSQGYLPQFCTAMCLQNTSASRSAILILQELSENQFCCDALSQLPCIDGIMKSMKNQPSLMRESAHALKCLMKRNTGELAQQMLSCGMVPYLLQVLDSSMNGVSNGAAARAEIVDALKSAILDLKVGQKIAEILDKSPVWAQFKDQRHDLFLPEARTQAITGGPTGVAGYLTEGMFNPPPMSNQPPPMHQTSGDFQPPL
binding: binds
